Where two headings read alike, the source gives them in different places. Results are given in words; binding and its absence hold for the method and conditions named. Binding seen in cells or lysates may run through a third protein. A yes stands for co-enrichment or nearness to the bait. Other partners may have been found. Blank lines part the entries; values can stand above or below the molecule they belong to.
Key:
Flag-PD-L1 (WT) (human) [1] = molecular target: Flag-PD-L1 (WT) (human) (UniProt Q9NZQ7); assay: affinity purification with mass spectrometry; HEK293T cells transfected with Flag-PD-L1, treated with ES-072 (10 μM) for 48 h; proteins co-immunoprecipitated with PD-L1 analysed by mass spectrometry
Flag-PD-L1 (WT) (human) [2] = molecular target: Flag-PD-L1 (WT) (human) (UniProt Q9NZQ7); assay: as above; remark: listed apart in the source

The chains behind the UniProt entries cited, without tags or fusion partners. Residues count along the entry.
UniProt Q9NZQ7, residues 19-290: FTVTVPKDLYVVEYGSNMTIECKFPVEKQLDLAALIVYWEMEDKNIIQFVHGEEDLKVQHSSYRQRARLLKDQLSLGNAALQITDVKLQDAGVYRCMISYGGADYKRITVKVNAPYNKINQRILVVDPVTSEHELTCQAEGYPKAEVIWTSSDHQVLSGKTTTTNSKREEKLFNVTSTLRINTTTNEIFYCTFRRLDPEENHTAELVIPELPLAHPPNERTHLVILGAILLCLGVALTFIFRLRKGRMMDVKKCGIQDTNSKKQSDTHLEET
UniProt Q9Y4X5: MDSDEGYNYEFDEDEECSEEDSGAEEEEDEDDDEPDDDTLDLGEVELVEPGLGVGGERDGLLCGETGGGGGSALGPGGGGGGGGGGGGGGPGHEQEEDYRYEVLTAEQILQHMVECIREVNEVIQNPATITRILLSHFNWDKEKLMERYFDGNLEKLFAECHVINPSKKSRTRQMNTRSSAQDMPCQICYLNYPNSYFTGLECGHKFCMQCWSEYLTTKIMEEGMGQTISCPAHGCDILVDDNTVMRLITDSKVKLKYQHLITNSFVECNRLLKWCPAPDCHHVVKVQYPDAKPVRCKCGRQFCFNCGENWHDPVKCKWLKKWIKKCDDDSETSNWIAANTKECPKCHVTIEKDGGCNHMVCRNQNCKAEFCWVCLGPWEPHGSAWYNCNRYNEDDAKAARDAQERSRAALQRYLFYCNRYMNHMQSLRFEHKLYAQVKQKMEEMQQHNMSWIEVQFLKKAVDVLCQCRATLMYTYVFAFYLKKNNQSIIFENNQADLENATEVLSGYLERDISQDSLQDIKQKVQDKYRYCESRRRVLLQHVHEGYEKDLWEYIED
UniProt P49840: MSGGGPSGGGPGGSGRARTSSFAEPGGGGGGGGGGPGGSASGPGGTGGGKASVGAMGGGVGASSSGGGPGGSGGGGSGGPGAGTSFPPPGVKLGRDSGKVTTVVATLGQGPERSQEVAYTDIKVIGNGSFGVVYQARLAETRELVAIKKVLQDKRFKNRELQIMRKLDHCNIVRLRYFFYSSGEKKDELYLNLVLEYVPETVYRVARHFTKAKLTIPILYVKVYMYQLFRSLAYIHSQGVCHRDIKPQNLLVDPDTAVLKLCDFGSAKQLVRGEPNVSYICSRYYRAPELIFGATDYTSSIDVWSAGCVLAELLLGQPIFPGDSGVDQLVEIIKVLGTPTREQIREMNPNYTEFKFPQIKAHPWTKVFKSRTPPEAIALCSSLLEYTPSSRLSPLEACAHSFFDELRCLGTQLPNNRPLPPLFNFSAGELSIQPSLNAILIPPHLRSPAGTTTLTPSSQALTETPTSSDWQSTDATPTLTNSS

- binding (Flag-PD-L1 (WT) (human) [1]): binds
Molecule: endogenous ARIH1 (from UniProt Q9Y4X5 1-557) (enzyme)

- binding (Flag-PD-L1 (WT) (human) [1]): binds
Molecule: endogenous GSK3α (from UniProt P49840 1-483) (enzyme)

- binding (Flag-PD-L1 (WT) (human) [2]): binds
B1: ring finger protein 25 (RNF25) (enzyme, UniProt Q96BH1 1-459)
chain: MAASASAAAGEEDWVLPSEVEVLESIYLDELQVIKGNGRTSPWEIYITLHPATAEDQDSQYVCFTLVLQVPAEYPHEVPQISIRNPRGLSDEQIHTILQVLGHVAKAGLGTAMLYELIEKGKEILTDNNIPHGQCVICLYGFQEKEAFTKTPCYHYFHCHCLARYIQHMEQELKAQGQEQEQERQHATTKQKAVGVQCPVCREPLVYDLASLKAAPEPQQPMELYQPSAESLRQQEERKRLYQRQQERGGIIDLEAERNRYFISLQQPPAPAEPESAVDVSKGSQPPSTLAAELSTSPAVQSTLPPPLPVATQHICEKIPGTRSNQQRLGETQKAMLDPPKPSRGPWRQPERRHPKGGECHAPKGTRDTQELPPPEGPLKEPMDLKPEPHSQGVEGPPQEKGPGSWQGPPPRRTRDCVRWERSKGRTPGSSYPRLPRGQGAYRPGTRRESLGLESKDGS
